These are yes or no findings as the source states them, for the method shown. Binding seen in cells or lysates may run through a third protein. A yes stands for co-enrichment or nearness to the bait. Other partners may have been found. For some of these results: No binding means not detected with the bait. For some of these results: Sequences can lack the tags named with a protein.
How the values were obtained:
GFP–JAZF1 = biological target: T1, GFP–JAZF1 (UniProt Q86VZ6); assay: affinity purification with mass spectrometry; SILAC-labelled HeLa Kyoto cells transiently expressing GFP or GFP–JAZF1; single-step affinity purification of soluble nuclear proteins on GFP nanotrap beads; ratio cutoff 4
T1 sequence: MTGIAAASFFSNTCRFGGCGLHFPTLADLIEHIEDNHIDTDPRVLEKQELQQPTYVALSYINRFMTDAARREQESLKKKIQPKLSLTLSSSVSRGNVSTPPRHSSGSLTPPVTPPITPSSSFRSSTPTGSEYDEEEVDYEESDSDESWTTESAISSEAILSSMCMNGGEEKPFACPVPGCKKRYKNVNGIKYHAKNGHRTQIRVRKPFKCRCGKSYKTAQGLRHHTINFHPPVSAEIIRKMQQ

Protein sequences, listed by entry. Tags and fused reporters are not part of them.
UniProt Q9GZN1: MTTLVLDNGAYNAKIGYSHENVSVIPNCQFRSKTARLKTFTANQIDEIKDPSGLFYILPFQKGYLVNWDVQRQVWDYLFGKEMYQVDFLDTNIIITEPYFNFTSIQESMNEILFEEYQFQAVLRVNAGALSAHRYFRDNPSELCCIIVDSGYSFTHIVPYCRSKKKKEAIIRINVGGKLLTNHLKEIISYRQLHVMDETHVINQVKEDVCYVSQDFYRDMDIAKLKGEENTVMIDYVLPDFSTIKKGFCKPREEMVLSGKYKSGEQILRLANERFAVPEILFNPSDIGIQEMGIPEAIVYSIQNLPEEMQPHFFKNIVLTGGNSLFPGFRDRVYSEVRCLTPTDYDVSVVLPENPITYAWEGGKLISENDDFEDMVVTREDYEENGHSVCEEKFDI
UniProt Q05BQ5: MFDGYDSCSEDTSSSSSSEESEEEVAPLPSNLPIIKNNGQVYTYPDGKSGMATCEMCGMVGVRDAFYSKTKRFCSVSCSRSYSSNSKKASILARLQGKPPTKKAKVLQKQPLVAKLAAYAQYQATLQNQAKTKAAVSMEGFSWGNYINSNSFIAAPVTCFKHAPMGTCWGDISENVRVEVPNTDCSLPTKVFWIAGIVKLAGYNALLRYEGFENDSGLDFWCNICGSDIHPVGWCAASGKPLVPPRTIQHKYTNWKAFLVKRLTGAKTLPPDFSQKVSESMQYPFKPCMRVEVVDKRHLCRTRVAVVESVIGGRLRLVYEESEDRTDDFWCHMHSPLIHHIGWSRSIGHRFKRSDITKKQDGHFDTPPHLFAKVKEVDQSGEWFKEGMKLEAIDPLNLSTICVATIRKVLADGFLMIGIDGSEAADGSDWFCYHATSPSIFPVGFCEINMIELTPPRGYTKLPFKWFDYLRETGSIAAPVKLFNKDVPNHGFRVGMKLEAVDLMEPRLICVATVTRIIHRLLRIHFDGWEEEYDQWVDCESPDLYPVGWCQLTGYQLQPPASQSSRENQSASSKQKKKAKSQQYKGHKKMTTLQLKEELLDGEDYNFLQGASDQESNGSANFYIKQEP
UniProt Q6ZRS2: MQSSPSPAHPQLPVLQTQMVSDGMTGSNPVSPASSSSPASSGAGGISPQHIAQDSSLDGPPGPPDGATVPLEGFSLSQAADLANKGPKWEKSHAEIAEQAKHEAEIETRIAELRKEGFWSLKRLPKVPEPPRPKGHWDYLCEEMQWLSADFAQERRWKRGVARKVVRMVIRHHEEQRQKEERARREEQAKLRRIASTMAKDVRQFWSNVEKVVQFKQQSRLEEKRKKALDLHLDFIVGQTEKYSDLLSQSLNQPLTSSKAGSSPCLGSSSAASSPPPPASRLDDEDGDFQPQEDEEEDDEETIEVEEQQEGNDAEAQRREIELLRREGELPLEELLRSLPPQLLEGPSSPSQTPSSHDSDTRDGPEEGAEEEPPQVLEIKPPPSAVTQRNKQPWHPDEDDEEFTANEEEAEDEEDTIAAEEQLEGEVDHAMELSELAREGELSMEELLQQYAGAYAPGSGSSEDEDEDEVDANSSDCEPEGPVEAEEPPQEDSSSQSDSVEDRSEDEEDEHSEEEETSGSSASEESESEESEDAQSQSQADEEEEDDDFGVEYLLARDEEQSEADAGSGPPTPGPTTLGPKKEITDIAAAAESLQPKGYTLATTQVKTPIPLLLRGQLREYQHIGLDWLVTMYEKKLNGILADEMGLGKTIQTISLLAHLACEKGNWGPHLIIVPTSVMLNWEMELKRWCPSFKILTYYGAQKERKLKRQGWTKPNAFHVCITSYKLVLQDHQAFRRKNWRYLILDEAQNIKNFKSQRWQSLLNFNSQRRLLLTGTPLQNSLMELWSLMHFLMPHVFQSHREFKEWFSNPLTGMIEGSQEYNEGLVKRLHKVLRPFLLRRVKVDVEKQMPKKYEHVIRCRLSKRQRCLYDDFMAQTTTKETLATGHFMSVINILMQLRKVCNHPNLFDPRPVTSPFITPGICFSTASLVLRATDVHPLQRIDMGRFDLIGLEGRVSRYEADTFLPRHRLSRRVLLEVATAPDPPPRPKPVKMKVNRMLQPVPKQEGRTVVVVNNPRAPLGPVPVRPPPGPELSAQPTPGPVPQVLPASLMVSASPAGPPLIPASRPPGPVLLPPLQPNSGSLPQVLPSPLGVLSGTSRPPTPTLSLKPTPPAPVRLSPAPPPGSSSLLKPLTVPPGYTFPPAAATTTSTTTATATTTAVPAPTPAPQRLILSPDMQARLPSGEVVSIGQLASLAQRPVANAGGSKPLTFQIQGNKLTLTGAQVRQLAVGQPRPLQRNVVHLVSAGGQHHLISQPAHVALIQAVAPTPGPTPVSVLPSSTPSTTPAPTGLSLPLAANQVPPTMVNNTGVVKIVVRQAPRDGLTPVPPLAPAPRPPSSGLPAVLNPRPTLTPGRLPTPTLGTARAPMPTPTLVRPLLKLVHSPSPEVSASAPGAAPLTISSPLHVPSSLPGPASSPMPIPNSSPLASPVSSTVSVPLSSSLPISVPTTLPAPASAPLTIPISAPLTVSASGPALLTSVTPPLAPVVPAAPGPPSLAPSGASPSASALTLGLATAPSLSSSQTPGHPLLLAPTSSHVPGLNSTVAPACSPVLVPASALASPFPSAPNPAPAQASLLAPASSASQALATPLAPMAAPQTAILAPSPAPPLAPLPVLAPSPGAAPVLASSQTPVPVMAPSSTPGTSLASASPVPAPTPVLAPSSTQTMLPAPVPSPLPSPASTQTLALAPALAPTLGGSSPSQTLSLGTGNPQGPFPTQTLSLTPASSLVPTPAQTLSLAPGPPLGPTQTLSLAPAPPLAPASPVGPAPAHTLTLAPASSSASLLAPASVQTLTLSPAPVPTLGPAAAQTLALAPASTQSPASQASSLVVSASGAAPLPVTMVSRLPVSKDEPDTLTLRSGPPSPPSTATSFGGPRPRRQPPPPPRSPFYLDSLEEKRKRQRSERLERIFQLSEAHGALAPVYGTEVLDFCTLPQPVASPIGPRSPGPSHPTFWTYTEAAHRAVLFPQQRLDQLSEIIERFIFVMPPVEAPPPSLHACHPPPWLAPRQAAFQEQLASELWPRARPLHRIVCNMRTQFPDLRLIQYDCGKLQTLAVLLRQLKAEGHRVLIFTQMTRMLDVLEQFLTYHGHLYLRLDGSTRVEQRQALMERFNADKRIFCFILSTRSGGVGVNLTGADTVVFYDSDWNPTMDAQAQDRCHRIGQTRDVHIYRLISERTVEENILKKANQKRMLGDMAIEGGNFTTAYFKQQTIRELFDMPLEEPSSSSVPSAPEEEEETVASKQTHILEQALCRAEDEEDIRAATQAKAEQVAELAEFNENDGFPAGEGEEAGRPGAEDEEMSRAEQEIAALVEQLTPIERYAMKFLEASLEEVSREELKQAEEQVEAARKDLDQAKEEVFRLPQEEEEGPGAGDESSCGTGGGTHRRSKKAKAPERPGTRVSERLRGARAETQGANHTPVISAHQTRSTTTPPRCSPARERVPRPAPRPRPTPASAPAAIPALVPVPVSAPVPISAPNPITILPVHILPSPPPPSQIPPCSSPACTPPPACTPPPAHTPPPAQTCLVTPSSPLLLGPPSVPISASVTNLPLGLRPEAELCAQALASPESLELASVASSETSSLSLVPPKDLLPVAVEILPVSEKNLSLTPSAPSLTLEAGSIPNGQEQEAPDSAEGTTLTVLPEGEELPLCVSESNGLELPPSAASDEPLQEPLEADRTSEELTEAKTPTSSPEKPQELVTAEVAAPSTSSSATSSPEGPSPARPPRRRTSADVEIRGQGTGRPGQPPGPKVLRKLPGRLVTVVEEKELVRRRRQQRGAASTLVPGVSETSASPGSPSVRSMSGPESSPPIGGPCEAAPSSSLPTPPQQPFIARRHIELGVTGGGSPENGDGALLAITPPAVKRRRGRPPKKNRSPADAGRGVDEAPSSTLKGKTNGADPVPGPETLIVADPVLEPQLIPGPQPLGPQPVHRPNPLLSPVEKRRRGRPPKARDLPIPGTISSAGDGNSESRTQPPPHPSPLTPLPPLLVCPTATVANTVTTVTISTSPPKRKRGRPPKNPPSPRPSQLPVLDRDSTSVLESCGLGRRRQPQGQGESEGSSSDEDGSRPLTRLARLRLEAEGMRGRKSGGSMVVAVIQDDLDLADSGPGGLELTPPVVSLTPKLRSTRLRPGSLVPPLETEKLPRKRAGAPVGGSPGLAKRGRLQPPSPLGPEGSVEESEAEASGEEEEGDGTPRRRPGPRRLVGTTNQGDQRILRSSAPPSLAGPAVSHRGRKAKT

GFP–H2A.X (human) = GFP–H2A.X (human) (UniProt P16104); assay: affinity purification with mass spectrometry; SILAC-labelled HeLa Kyoto cells stably expressing GFP, GFP–H2A, –H2A.X, –H2A.Bbd or –H2A.Z.1; single-step affinity purification of soluble (chromatin-free) nuclear proteins on GFP nanotrap beads; ratio cutoff 4 and 0.25 (forward and reverse)

binding (GFP–JAZF1)	binding (GFP–H2A.X (human))	Substance
no binding		ACTR6 (from UniProt Q9GZN1 1-396)
binds		MBT-domain-containing protein MBTD1 (from UniProt Q05BQ5 1-628)
	binds	MCM2 (from UniProt P49736 1-904)
no binding		SRCAP (from UniProt Q6ZRS2 1-3230)
